Reference: PMC3269379, “The Host-Pathogen interaction of human cyclophilin A and HIV-1 Vpr requires specific N-terminal and novel C-terminal domains” (BMC Structural Biology, 2011)
Results are given in words; binding and its absence hold for the method and conditions named. Some binding calls cover weakened binding; strength is not graded here.

Chains of the proteins cited; added tags and fusions are not shown.
UniProt P62937: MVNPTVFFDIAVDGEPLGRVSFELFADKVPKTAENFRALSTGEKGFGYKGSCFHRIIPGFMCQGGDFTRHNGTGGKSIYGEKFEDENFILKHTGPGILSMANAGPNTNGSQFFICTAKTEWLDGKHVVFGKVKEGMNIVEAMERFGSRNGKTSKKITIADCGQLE

Target: human cyclophilin A (human) (UniProt P62937)
Experiment: SPR; both purified

B1: Vpr^75-90 (peptide)
peptide: GCRHSRIGVTRQRRAR
binding: binds
